In publication PMC9045335:
Results are given in words; binding and its absence hold for the method and conditions named. Binding seen in cells or lysates may run through a third protein. Here binding means that the protein was enriched with, or labelled near, the bait; the list need not be complete.

Target: TurboID-HA-Urm1 fusion (Toxoplasma gondii)
Test: proximity labelling; TurboID-HA-Urm1 tachyzoites in Vero cells, 150 uM biotin 24 h at 37 C, with or without Dia; RIPA lysate; streptavidin magnetic beads; mass spectrometry

B1: RON4 (protein, UniProt B6KJ32 27-984)
chain: SPPTPAPRMYPNMNERPLSAESRLTPGTYRSELHIDLKSPQKTASQSSLAPTGDNNSKVESIIAGSDTTPRSAEGTSESPPVPQLGTPPRPAPRRSKGEGERQPPTAAPRTSRSVDTGSGSDASTEQQAGGQKVVTPIPASKGIYPSLDELRRSQESNVDAGSGTSTNEGGGTSEGPQVPQSGIPPRTGRRRAKARNRKRHPTPASRESSSEDENQPPTTASRPSNGEGESQPPTAAPRTSRSVDTGSGSDASTEQQAGGQKVVTPIPASKGIYPNLDELRQTQEGEESAPQPADVTWFSMSVPMGVVDRRVSRALKEQFFQFLQHLSADYPKQVQTVYEFLGWVADKLPENEEEVQMFIDALNTTEAMVGKAARWIFKAIPERERETIYSSFYQMFRDKLPKKFFETAEGMNPDVGQYFSAEEPVAVTPEIPAKSEEDSEAAETPTPLRRQANVAAQVLHPLPAKGVTRREWIPWPKMQNAISKAHGPLTRVPEWTPVTGSCALGDGYTDIDVTKATTDVLFRITLLILQQIRRKKTERGKLEDDQALVALCSAAGAFVDAWQHQQQALILEDPGTPKAHAQLIERLRNAGKYFMKSYDETTGESDHQQWKKNKAEVSKLGKSALMKSCVKYIKASGDVATRPFDSGTAKYPSRSLYGGIANTLETPFADSEAVAKAVHDYAKEHKKPEKLVGLCGALQISGYFKKCFSDAGRLSSVSFFHQHVDGASVLVRTLARERPIGRHALSQAICDPNISAQYFEGAFRLFSSTVSQEWEKENLFAQLASWTGKEMVLAPSLEEQAAVPPAQPAYETVYGDEEDRIYRIHVSGRHSSPQEVLYVGGIPSTVKPQQVHVLGPTVSDESRRMIHPVRHRSRTAPSSEAASTAAESSDEDPLPAENATAFLGVTPQEEESDAYKHTLDFDAVSPRKNKNKENRISAPLKQSDTLIEESTSKTSEL
binding: binds
